{"source": "patent US20060073528A1", "about": "“Measurement methods” (priority 2004, published 2006)", "key": {"[1]": {"experiment": "Hisep RP-HPLC quantitation of DM1 monomer, DM1 dimer, DM1-TPA adduct, PPA and mercaptopyridine (specificity, precision, linearity, spike recovery, LOD, LOQ, range)"}, "[2]": {"experiment": "Effect of extraction solvent for sample preparation on recovery; standards crossover study (Hisep RP-HPLC)"}, "[3]": {"conditions": "limit of detection, standard solutions, triplicates"}, "[4]": {"conditions": "limit of quantitation, standard solutions, triplicates"}}, "note": "“And” between values parts separate entries of the source, which are not always exact repeats. Equal entries are not always repeated. Where two headings read alike, the source gives them in different places.", "data": [{"compound": "CC(CCC(=O)O)SSc1ccccn1", "note": "(stereo not shown) [PPA, 4-(2-pyridyldithio) pentanoic acid]", "values": [{"measurement": "LOD - standard solution", "setting": "[1]; [3]", "value": 0.155, "unit": "µM"}, {"measurement": "LOQ - standard solution", "setting": "[1]; [4]", "value": 0.312, "unit": "µM"}]}, {"compound": "COc1cc2cc(c1Cl)N(C)C(=O)CC(OC(=O)C(C)N(C)CC(=O)CCSSC(C)CCC(=O)O)C1(C)OC1C(C)C1CC(O)(NC(=O)O1)C(OC)C=CC=C(C)C2", "note": "(stereo not shown) [DM1-TPA adduct, DM1-thiopentanoic acid adduct]", "values": [{"measurement": "LOD - standard solution", "setting": "[1]", "value": 0.015, "unit": "µM"}, {"measurement": "LOQ - standard solution", "setting": "[1]", "value": 0.062, "unit": "µM"}]}, {"compound": "COc1cc2cc(c1Cl)N(C)C(=O)C[C@H](OC(=O)[C@H](C)N(C)C(=O)CCS)[C@]1(C)O[C@H]1[C@H](C)[C@@H]1C[C@@](O)(NC(=O)O1)[C@H](OC)/C=C/C=C(\\C)C2", "note": "[DM1 monomer]", "values": [{"measurement": "LOD - standard solution", "setting": "[1]; [3]", "value": 0.025, "unit": "µM"}, {"measurement": "LOQ - standard solution", "setting": "[1]; [4]", "value": 0.125, "unit": "µM"}, {"measurement": "% diff original vs new standard", "setting": "[2]; 0.5 μM", "value": 1.7, "unit": "%"}, {"measurement": "New standard, Avg (area)", "setting": "[2]; 0.5 μM", "value": 20077}, {"measurement": "New standard, Injection (area)", "setting": "[2]; 0.5 μM", "value": "20538 and 19616"}, {"measurement": "Original standard, Avg (area)", "setting": "[2]; 0.5 μM", "value": 19513}, {"measurement": "Original standard, Injection (area)", "setting": "[2]; 0.5 μM", "value": "19627 and 19399"}, {"measurement": "% diff original vs new standard", "setting": "[2]; 1.0 μM", "value": 30.4, "unit": "%"}, {"measurement": "New standard, Avg (area)", "setting": "[2]; 1.0 μM", "value": 52266}, {"measurement": "New standard, Injection (area)", "setting": "[2]; 1.0 μM", "value": "52407 and 52125"}, {"measurement": "Original standard, Avg (area)", "setting": "[2]; 1.0 μM", "value": 40016}, {"measurement": "Original standard, Injection (area)", "setting": "[2]; 1.0 μM", "value": "39984 and 40048"}, {"measurement": "% diff original vs new standard", "setting": "[2]; 5.0 μM", "value": 14.1, "unit": "%"}, {"measurement": "New standard, Avg (area)", "setting": "[2]; 5.0 μM", "value": 255399}, {"measurement": "New standard, Injection (area)", "setting": "[2]; 5.0 μM", "value": "255949 and 254849"}, {"measurement": "Original standard, Avg (area)", "setting": "[2]; 5.0 μM", "value": 223640}, {"measurement": "Original standard, Injection (area)", "setting": "[2]; 5.0 μM", "value": "223654 and 223627"}, {"measurement": "% diff original vs new standard", "setting": "[2]; 10.0 μM", "value": 12.4, "unit": "%"}, {"measurement": "New standard, Avg (area)", "setting": "[2]; 10.0 μM", "value": 519846}, {"measurement": "New standard, Injection (area)", "setting": "[2]; 10.0 μM", "value": "521439 and 518253"}, {"measurement": "Original standard, Avg (area)", "setting": "[2]; 10.0 μM", "value": 461739}, {"measurement": "Original standard, Injection (area)", "setting": "[2]; 10.0 μM", "value": "461364 and 462114"}]}, {"compound": "S=c1cccc[nH]1", "note": "[mercaptopyridine]", "values": [{"measurement": "LOD - standard solution", "setting": "[1]; [3]", "value": 0.075, "unit": "µM"}, {"measurement": "LOQ - standard solution", "setting": "[1]; [4]", "value": 0.15, "unit": "µM"}]}]}
